No constants are given. Whether binding was seen depends on the method and setting. Some results given as binding are weak or reduced against the parent protein; the word gives no strength.
Target: T1, p120-catenin (UniProt O60716)
T1 sequence (looked up): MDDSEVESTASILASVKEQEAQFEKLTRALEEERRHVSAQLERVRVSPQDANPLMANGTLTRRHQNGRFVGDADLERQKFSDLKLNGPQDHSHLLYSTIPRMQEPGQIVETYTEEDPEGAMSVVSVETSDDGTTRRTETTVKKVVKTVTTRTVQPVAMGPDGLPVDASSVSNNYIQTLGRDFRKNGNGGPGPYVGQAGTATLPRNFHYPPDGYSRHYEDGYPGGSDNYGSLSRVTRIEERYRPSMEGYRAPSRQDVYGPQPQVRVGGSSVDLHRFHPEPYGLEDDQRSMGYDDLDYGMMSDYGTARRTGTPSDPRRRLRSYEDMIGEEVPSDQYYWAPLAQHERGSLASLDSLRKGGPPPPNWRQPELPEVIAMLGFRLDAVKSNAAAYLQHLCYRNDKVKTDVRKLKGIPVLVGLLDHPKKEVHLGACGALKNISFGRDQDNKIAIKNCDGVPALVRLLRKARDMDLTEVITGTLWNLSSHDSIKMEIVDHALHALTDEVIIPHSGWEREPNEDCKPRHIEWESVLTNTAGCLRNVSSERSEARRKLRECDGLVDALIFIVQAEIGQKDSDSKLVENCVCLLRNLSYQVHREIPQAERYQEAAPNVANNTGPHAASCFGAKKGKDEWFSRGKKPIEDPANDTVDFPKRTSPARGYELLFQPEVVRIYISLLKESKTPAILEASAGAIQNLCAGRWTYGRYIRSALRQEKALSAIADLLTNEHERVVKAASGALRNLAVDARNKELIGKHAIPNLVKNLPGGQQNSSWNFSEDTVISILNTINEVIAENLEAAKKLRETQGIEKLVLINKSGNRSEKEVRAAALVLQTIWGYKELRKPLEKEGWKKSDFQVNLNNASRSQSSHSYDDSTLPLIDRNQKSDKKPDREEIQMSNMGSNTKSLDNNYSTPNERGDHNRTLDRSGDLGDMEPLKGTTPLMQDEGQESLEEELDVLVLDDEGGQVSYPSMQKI
Test: in situ proximity assay (chemical ligation and hapten transfer) on FFPE tonsil sections

binding: binds
B1: E-cadherin (other, UniProt P12830 155-882, looked up)
chain: DWVIPPISCPENEKGPFPKNLVQIKSNKDKEGKVFYSITGQGADTPPVGVFIIERETGWLKVTEPLDRERIATYTLFSHAVSSNGNAVEDPMEILITVTDQNDNKPEFTQEVFKGSVMEGALPGTSVMEVTATDADDDVNTYNAAIAYTILSQDPELPDKNMFTINRNTGVISVVTTGLDRESFPTYTLVVQAADLQGEGLSTTATAVITVTDTNDNPPIFNPTTYKGQVPENEANVVITTLKVTDADAPNTPAWEAVYTILNDDGGQFVVTTNPVNNDGILKTAKGLDFEAKQQYILHVAVTNVVPFEVSLTTSTATVTVDVLDVNEAPIFVPPEKRVEVSEDFGVGQEITSYTAQEPDTFMEQKITYRIWRDTANWLEINPDTGAISTRAELDREDFEHVKNSTYTALIIATDNGSPVATGTGTLLLILSDVNDNAPIPEPRTIFFCERNPKPQVINIIDADLPPNTSPFTAELTHGASANWTIQYNDPTQESIILKPKMALEVGDYKINLKLMDNQNKDQVTTLEVSVCDCEGAAGVCRKAQPVEAGLQIPAILGILGGILALLILILLLLLFLRRRAVVKEPLLPPEDDTRDNVYYYDEEGGGEEDQDFDLSQLHRGLDARPEVTRNDVAPTLMSVPRYLPRPANPDEIGNFIDENLKAADTDPTAPPYDSLLVFDYEGSGSEAASLSSLNSSESDKDQDYDYLNEWGNRFKKLADMYGGGEDD
notes: Endogenous protein in tissue section; also called E-cadherein

— US20170254813A1 (VENTANA MEDICAL SYSTEMS, published 2017)
